No constants are given. Whether binding was seen depends on the method and setting.
Target: SeMet-substituted PAS1 (L71M) (residues 43–168) (Pseudomonas putida F1) (UniProt A5W4E3)
Experiment: crystal structure; PAS1(43–168) apo, with 1,2,4-TMB, and SeMet L71M with toluene; sitting or hanging drop, 2.8–3.0 M ammonium phosphate, 0.1 M Tris-HCl pH 8.0–8.5, 21 °C; two molecules in the asymmetric unit; both purified

binding: no binding
B1: SeMet-substituted PAS1 (L71M) (residues 43–168) (domain or fragment, UniProt A5W4E3 43-168)
chain: LYEFVGLLDAHGNVLEVNQVALEGGGITMEEIRGKPFWKARWWQISKKTEATQKRLVETASSGEFVRCDVEILGKSGGREVIAVDFSLLPICNEEGSIVYLLAEGRNITDKKKAEAMLALKNQELE
modifications: selenomethionine (SeMet-substituted)

— paper PMC4861429, “Molecular Insights into Toluene Sensing in the TodS/TodT Signal Transduction System” (The Journal of Biological Chemistry, 2016)
